Results are given in words; binding and its absence hold for the method and conditions named. Some entries that bind do so weakly or less than the wild type.
Molecular target: Tissue-bound C3 fragments (C3b/iC3b/C3d) in renal glomeruli of factor H deficient (fH-/-) mice (mouse) (UniProt P01027)
Assay: 0.5 mg CR2-Fc injected into an fH-/- mouse, kidney sections stained for mouse IgG after 24 hours

Amino acid sequences for entries named in this document (tags omitted). Residues count along the entry.
UniProt P01027, residues 955-1303: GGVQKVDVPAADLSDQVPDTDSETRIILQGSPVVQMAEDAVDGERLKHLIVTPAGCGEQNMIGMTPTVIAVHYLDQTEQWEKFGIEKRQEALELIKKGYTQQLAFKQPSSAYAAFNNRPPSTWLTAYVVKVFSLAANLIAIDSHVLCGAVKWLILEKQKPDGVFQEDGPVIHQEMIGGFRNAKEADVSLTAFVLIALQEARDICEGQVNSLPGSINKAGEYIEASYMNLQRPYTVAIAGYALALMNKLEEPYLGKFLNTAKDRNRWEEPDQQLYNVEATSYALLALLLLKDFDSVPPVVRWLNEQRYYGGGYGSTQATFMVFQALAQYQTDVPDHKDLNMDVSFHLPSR
UniProt P20023, residues 21-148: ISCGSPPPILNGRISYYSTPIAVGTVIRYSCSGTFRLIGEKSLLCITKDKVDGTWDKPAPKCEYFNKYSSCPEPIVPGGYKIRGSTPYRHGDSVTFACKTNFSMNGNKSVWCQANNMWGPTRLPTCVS

binding: binds
Substance: CR2-Fc, chimeric protein comprised of the iC3b/C3d binding region of human CR2 linked to the Fc region of mouse IgG1 (from UniProt P20023 21-148) (Fc fusion)

From patent USRE49339
